Results published in PMC12254266, “Multicolored sequential resonance energy transfer for detection of simultaneous ligand binding at G protein-coupled receptors” (Nature Communications, 2025).
Where “and” joins values, the source holds several entries; their conditions need not be identical. Equal entries are not always repeated. Further values from the same series stand in other lists.

Protein sequences, listed by entry. Tags and fused reporters are not part of them.
UniProt O14842, whole entry: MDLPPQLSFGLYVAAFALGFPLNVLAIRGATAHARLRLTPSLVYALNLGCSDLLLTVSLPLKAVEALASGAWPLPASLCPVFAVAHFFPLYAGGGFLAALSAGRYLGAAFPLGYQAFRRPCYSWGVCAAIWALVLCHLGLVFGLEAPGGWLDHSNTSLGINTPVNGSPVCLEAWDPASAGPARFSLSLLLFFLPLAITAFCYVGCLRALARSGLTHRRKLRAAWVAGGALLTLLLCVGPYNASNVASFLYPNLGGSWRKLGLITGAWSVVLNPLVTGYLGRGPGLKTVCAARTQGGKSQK

Target: FFA1 (Homo sapiens, UniProt O14842)
Assay: Ca2+ mobilisation (Fura2) in Flp-In T-REx 293 cells expressing Nluc-FFA1, FFA1-Nluc or untagged FFA1
Type: cell-based
Set-up: expressed in transfected cells
Settings: technical replicates
Description: Nluc-FFA1, FFA1-Nluc or untagged FFA1 Flp-In T-REx 293 cells were plated at 50,000 cells per well in poly-D-lysine coated black clear bottom 96-well plates. Cells were then cultured for 24 h until reaching confluency before culture medium was replaced with medium containing 100 ng/mL of doxycycline to induce receptor expression. Cells were cultured for a further 24 h before the assay. On the day of the assay culture medium was removed and replaced with medium containing 3 μM Fura2-AM Ca^2+ dye. […] Fura2 fluorescent emission at 520 nm following excitation with each of 340 and 380 nm was measured in regular intervals both before and after adding test compounds for a total of 90 s per well. Calcium responses were determined by taking the peak 340/380 ratio after first subtracting the ratios obtained prior to addition of test compound.

[1] = FFA1-Nluc cells, log[ligand] -5.5
[2] = FFA1-Nluc cells, log[ligand] -6
[3] = FFA1-Nluc cells, log[ligand] -6.5
[4] = FFA1-Nluc cells, log[ligand] -8
[5] = Nluc-FFA1 cells, log[ligand] -5.5
[6] = Nluc-FFA1 cells, log[ligand] -6
[7] = Nluc-FFA1 cells, log[ligand] -6.5
[8] = Nluc-FFA1 cells, log[ligand] -8
[9] = FFA1-Nluc cells, log[ligand] -5
[10] = FFA1-Nluc cells, log[ligand] -7
[11] = FFA1-Nluc cells, log[ligand] -9
[12] = Nluc-FFA1 cells, log[ligand] -5
[13] = Nluc-FFA1 cells, log[ligand] -7
[14] = Nluc-FFA1 cells, log[ligand] -9
[15] = untagged FFA1 cells, log[ligand] -5
[16] = untagged FFA1 cells, log[ligand] -5.5
[17] = untagged FFA1 cells, log[ligand] -7
[18] = untagged FFA1 cells, log[ligand] -8
[19] = untagged FFA1 cells, log[ligand] -9

| Compound | Ca2+ Response as a % of T360 Response [1] | Ca2+ Response as a % of T360 Response [2] | Ca2+ Response as a % of T360 Response [3] | Ca2+ Response as a % of T360 Response [4] | Ca2+ Response as a % of T360 Response [5] | Ca2+ Response as a % of T360 Response [6] | Ca2+ Response as a % of T360 Response [7] | Ca2+ Response as a % of T360 Response [8] | Ca2+ Response as a % of T360 Response [9] | Ca2+ Response as a % of T360 Response [10] | Ca2+ Response as a % of T360 Response [11] | Ca2+ Response as a % of T360 Response [12] | Ca2+ Response as a % of T360 Response [13] | Ca2+ Response as a % of T360 Response [14] | Ca2+ Response as a % of T360 Response [15] | Ca2+ Response as a % of T360 Response [16] | Ca2+ Response as a % of T360 Response [17] | Ca2+ Response as a % of T360 Response [18] | Ca2+ Response as a % of T360 Response [19] | other results |
| --- | --- | --- | --- | --- | --- | --- | --- | --- | --- | --- | --- | --- | --- | --- | --- | --- | --- | --- | --- | --- |
| Cc1cc(OCCOCCNC(=O)CCCCCN2\C(=C/C=C/C=C/C3=[N+](C)c4ccc(S(=O)(=O)[O-])cc4C3(C)C)C(C)(C)c3ccccc32)ccc1-c1cccc(COc2ccc(CCC(=O)O)c(F)c2)c1 [TUG-2355] | -1.27% and 4.19% and 5.21% and -0.41% and 1.34% and 0.65% | 0.35% and 5.00% and 1.81% and -0.20% and 0.45% and 0.71% | 4.42% and 1.45% and 1.13% and -0.18% and -0.52% and -0.47% | -1.66% and 1.68% and -1.19% and 1.00% and 0.97% and 1.13% | 20.05% and -0.41% and 1.34% and 0.65% and 17.83% and 27.69% | 2.11% and -0.20% and 0.45% and 0.71% and 5.00% and 8.24% | 1.53% and -0.18% and -0.52% and -0.47% and 1.48% and 8.34% | 2.24% and 3.57% |  |  |  |  |  |  |  |  |  |  |  |  |
| Cc1cc(OCCCNC(=O)CCCN2\C(=C/C=C/C=C/C3=[N+](C)c4ccc(S(=O)(=O)[O-])cc4C3(C)C)C(C)(C)c3ccccc32)ccc1-c1cccc(COc2ccc(CCC(=O)O)c(F)c2)c1 [TUG-2591] | 41.09% and 71.64% and 77.29% and 74.38% and 76.92% and 72.09% and 67.98% and 51.71% and 49.07% | 54.48% and 75.91% and 69.33% and 65.03% and 75.11% and 54.57% and 73.73% and 47.15% and 50.90% |  | 4.10% and 5.51% and 0.62% and 4.15% and 13.51% and 3.03% and 16.28% and 0.32% and 0.34% | 62.71% and 47.16% and 58.62% and 85.53% and 80.90% and 77.51% and 55.09% and 51.22% | 62.82% and 60.50% and 58.53% and 87.03% and 71.98% and 71.50% and 53.51% and 60.26% and 56.70% |  | 10.54% and 11.17% and 19.68% and 8.20% and 7.07% and 9.22% and 0.11% and 1.85% and 0.30% | 68.93% and 73.22% and 61.06% | 31.25% and 30.59% and 16.69% and 61.42% and 48.71% and 54.98% and 29.06% and 25.44% | 0.15% and 2.67% and 3.34% and 7.47% and 0.86% and 0.22% | 61.66% and 51.52% and 46.84% and 86.56% and 82.15% and 71.83% and 71.15% and 53.72% | -1.53% | 4.50% and 4.79% and 3.13% and 2.97% and -0.0331% and -1.56% | 73.88% and 90.04% and 90.98% and 113.09% and 113.77% and 103.32% and 85.20% and 94.37% and 80.83% and 87.57% and 86.66% and 84.26% | 86.09% and 89.74% and 93.13% and 105.82% and 101.78% and 112.45% and 96.23% and 90.75% and 70.71% and 87.69% and 88.88% and 90.09% | 28.84% and 44.39% and 38.80% and 72.82% and 63.53% and 66.36% and 20.34% and 8.02% and 16.18% and 82.87% and 87.61% and 100.19% | -1.09% and -0.47% and 1.31% and 1.77% and 2.07% and 3.91% and -1.52% and -0.97% and -4.65% and 46.49% and 40.31% and 41.09% | -4.65% and -2.58% and -2.50% and -2.74% and -1.49% and 1.85% and 0.63% and 6.88% and 1.23% and 10.08% and 2.21% and 0.38% | Ca2+ Response as a % of T360 Response (untagged FFA1 cells, log[ligand] -6): 82.21% and 72.63% and 79.20% and 93.93% and 100.36% and 102.52% and 72.86% and 50.43% and 69.57% and 81.03% and 87.24% and 67.44% |
| COc1ccc(C(=O)N(CC(C)(C)CNc2ccc([N+](=O)[O-])c3nonc23)c2cccc(C)n2)c(N2CCC(COc3cccc(C(CC(=O)O)C4CC4)c3)CC2)c1.O=C(O)C(F)(F)F (stereo not shown) [TUG-2597] | 94.698% and 88.423% and 88.116% and 92.876% and 94.945% and 95.818% and 102.852% and 111.378% and 100.705% |  | 98.021% and 82.724% and 91.327% and 93.393% and 84.345% and 87.827% and 93.280% and 88.950% | 0.642% and 14.276% and 15.758% and 11.833% and 8.597% and 24.026% and 6.350% and -0.774% and -0.697% | 84.219% and 81.439% and 84.281% and 103.200% and 100.553% and 101.368% and 104.058% and 93.139% and 91.624% |  | 76.903% and 88.958% and 103.314% | 5.666% and 7.808% and 6.761% and 1.773% and 0.229% and 3.624% and 0.162% and -0.569% and -0.743% | 91.480% and 94.109% and 100.366% and 94.069% and 95.277% and 93.422% and 94.028% and 113.620% and 103.754% | 43.346% and 78.003% and 75.420% and 62.248% and 75.723% and 79.985% and 65.599% and 54.974% and 35.897% | 3.030% and 0.483% and 3.282% and 3.253% and 0.414% and 0.132% | 91.486% and 90.455% and 91.717% and 99.857% and 112.150% and 100.497% and 102.216% and 108.535% and 91.507% | 51.126% and 50.272% and 29.879% and 25.578% and 37.373% and 40.555% and 53.706% and 58.556% and 52.425% | 3.293% and 1.821% and 3.182% and -1.236% and -0.487% and -1.356% | 93.872% and 90.556% and 66.298% and 112.406% and 112.965% and 89.657% and 87.371% and 87.412% and 68.520% and 85.359% and 86.100% and 46.980% | 84.053% and 81.717% and 68.773% and 108.672% and 75.451% and 115.065% and 97.440% and 99.091% and 64.288% and 65.554% and 76.893% and 66.874% | 49.550% and 46.108% and 56.346% and 100.506% and 97.968% and 98.824% and 55.051% and 74.119% and 60.583% and 72.202% and 77.542% and 57.631% | -2.816% and -7.422% and -5.374% and 46.992% and 46.661% and 52.951% and 29.170% and 12.929% and 7.593% and 36.800% and 64.028% and 51.175% | -1.782% and -6.058% and -4.192% and 2.530% and -1.096% and -1.030% and 0.123% and -5.168% and 4.435% and 8.821% and 17.482% and 3.402% | Ca2+ Response as a % of T360 Response (FFA1-Nluc cells, log[ligand] -4.5): 93.567% and 85.081% and 86.451%; Ca2+ Response as a % of T360 Response (Nluc-FFA1 cells, log[ligand] -4.5): 79.418% and 81.527% and 72.333%; Ca2+ Response as a % of T360 Response (untagged FFA1 cells, log[ligand] -6.5): 78.172% and 61.250% and 82.900% and 119.828% and 106.853% and 110.898% and 74.754% and 61.438% and 77.189% and 86.036% and 78.906% and 65.876% |
